Assay results: patent US6372211B1, “Methods and compositions for controlling insects” (Monsanto Technolgy LLC, priority 1997, dated 2002)
Some entries share one result that the patent states for a list of compounds.

Tested on: western corn rootworm
Assay: Western corn rootworm neonate larvae bioassay
Format: in vivo
Conditions: recombinant protein combined with F22844 partner protein; neonate WCRW

B1: E50: recombinant tedanalactam synthase purified from E. coli expressing pMON25428 (protein)
chain: MADEIYDVVVIGGGPIGLAAAYEAAKEGAKVVVLEQNNFFNHAGSSNDLARMFRTMYTEDYMADLAKEALALWDDLERDSGTPLRWMSGLLNFGDKDYGGDTPEGTLLGPIANLDRLGMTYQELSAKEIEARYPFKNLDPKYIGLFAPDNGLINVQLLLRTLYKLSLDYGATAKQHTKVQAIKPSNHSHYAWDVHAIRHETEAAVFKAKKIIIASGAYVNHVLKPSFDISLDLDIWEMVFSYFNCNAGPKGTIFPSMWFQFAPDKNGRSQLFYGFPALPWGPPNLARIAVDAATRRIKDPNERLTSTINPEDIADTQEFIRNHCVNVDPTIPALTSSCLQTNVFDNMFVLDFVPEKYLNGGAKDSVVVFTAGWAMKFVPMIGKALADMALKGSSPYARKEFAITRTDSATGKGIIVEGGSENRSVKSSAFVFYSPGIRFFVCRLP
With B1 the LC50 was “below 2 ppm”.
